Compound in the assay: Cc1cc(ccc1-c1ccccc1)C(=O)N1CCCN(CC1)C(=O)CCl [compound 10]
Description: probe-labelled cysteine peptide fold change vs DMSO (competition) (log2 fold change); higher = less target engagement (more negative = stronger competition). As to conditions: THP-1, incubation time: 4 h.

By UniProt entry, the sequences of proteins in these tests, tags left out. Where a name states a change or a piece, a line headed by the entry shows the natural chain unless it says otherwise.
UniProt Q9BRV8: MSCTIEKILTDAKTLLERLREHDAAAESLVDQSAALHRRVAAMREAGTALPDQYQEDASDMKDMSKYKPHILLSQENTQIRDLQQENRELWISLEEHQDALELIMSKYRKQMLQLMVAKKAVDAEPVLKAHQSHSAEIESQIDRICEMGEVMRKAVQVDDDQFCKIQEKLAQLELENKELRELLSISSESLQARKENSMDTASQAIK
UniProt Q12874: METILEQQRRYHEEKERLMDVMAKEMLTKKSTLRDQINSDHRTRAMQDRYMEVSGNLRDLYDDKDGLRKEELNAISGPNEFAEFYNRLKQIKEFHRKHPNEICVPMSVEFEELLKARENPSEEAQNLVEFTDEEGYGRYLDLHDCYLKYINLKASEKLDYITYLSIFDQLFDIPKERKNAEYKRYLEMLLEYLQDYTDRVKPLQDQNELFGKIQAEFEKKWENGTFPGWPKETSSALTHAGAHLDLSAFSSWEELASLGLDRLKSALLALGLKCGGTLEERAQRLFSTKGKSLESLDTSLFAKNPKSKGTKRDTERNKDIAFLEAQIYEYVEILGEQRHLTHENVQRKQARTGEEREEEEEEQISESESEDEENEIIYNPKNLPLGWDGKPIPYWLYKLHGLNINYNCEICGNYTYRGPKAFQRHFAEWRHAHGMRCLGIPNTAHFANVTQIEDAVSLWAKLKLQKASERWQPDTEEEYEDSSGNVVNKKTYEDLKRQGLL
UniProt Q9H936: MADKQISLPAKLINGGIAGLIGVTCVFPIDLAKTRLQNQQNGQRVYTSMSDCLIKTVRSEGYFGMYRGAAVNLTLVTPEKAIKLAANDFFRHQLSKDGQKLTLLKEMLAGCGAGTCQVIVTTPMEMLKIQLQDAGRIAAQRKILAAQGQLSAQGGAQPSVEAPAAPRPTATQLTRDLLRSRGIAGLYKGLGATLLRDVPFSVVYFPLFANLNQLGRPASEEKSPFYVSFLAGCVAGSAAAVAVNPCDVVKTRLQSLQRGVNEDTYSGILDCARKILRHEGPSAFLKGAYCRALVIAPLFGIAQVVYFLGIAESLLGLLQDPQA
UniProt P05141: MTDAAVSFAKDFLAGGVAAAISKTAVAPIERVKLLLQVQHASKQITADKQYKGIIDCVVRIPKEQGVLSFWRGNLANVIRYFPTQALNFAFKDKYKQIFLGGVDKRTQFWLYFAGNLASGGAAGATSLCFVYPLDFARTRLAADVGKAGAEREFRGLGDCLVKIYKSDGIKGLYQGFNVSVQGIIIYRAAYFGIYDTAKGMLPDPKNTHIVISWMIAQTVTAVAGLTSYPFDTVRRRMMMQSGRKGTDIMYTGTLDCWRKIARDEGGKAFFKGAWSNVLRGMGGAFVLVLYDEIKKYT
UniProt Q9UHJ3: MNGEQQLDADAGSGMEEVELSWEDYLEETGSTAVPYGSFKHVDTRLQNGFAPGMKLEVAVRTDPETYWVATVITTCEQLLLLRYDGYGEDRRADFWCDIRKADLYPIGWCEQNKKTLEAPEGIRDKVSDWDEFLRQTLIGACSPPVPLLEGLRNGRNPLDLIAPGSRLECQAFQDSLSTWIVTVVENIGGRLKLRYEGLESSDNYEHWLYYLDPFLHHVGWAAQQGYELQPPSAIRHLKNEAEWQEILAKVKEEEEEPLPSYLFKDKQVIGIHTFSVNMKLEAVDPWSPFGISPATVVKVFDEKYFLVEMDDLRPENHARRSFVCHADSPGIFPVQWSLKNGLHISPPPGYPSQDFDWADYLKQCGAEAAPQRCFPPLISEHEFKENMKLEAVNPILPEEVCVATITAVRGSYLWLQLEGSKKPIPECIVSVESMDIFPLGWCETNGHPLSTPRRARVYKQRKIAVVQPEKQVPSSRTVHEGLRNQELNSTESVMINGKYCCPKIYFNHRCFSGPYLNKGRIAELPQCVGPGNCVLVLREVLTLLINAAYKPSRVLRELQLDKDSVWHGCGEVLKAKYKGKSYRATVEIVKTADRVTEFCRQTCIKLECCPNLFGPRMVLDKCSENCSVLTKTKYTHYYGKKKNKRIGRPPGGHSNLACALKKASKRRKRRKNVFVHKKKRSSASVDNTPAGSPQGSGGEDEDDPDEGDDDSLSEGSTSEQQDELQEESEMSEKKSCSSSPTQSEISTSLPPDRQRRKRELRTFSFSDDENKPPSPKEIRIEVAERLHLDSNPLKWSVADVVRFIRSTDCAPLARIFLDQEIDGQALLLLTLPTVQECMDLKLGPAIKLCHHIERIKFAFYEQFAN
UniProt Q9BXP2: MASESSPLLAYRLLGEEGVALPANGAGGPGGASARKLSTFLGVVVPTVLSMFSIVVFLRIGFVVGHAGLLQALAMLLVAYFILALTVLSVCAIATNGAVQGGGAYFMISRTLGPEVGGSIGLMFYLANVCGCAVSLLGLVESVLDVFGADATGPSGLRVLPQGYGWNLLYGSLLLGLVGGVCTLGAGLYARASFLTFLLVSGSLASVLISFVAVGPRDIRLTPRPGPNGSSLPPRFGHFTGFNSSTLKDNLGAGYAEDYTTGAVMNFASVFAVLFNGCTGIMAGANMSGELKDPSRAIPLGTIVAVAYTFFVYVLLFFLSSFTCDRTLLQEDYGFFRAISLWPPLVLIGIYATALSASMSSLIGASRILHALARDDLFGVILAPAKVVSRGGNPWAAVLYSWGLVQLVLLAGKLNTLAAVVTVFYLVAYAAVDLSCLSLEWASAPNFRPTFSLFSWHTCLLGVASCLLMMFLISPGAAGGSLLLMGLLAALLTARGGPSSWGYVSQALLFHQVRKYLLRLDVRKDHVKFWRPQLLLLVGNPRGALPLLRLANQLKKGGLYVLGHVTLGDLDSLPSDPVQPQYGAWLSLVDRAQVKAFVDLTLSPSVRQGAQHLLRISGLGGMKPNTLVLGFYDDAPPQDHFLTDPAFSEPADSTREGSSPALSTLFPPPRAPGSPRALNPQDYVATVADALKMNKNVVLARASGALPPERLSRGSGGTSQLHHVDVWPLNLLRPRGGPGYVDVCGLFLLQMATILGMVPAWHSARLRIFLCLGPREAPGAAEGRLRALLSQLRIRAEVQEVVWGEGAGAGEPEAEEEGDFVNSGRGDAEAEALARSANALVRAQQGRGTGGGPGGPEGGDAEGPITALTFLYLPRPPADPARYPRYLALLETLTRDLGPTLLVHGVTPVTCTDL
UniProt P78324, whole entry, looked up: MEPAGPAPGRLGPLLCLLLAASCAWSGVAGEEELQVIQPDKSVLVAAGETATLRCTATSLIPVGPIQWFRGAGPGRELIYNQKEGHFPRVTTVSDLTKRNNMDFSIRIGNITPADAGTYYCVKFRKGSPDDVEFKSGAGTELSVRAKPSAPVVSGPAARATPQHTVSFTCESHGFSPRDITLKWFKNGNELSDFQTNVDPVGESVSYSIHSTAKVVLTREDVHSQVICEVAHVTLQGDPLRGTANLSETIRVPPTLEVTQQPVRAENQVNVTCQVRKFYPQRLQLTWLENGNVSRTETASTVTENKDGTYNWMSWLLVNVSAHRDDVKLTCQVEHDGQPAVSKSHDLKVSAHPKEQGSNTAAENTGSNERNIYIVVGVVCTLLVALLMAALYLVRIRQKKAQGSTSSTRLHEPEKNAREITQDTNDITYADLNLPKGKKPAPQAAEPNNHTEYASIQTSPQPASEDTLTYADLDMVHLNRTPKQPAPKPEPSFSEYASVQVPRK
UniProt Q8TBC3: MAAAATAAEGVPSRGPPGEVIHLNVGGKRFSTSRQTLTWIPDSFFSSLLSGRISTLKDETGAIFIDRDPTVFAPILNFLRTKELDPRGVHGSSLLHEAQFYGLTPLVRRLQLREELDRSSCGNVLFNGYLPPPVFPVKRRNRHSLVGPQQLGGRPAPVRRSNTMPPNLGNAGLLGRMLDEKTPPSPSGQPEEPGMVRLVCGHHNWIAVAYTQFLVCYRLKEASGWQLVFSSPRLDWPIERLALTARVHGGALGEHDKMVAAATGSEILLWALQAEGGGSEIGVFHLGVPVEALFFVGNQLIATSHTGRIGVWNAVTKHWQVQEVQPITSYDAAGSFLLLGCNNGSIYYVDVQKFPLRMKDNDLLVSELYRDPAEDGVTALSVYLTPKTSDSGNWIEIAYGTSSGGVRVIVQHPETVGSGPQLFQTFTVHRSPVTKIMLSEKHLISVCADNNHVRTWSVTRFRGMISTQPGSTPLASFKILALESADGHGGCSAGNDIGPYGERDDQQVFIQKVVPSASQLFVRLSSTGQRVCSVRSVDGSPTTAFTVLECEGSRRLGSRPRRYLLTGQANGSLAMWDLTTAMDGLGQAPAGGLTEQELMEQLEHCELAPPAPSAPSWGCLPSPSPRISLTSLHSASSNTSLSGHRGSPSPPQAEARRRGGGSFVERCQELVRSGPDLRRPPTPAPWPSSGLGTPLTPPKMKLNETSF
UniProt P53007, whole entry, looked up: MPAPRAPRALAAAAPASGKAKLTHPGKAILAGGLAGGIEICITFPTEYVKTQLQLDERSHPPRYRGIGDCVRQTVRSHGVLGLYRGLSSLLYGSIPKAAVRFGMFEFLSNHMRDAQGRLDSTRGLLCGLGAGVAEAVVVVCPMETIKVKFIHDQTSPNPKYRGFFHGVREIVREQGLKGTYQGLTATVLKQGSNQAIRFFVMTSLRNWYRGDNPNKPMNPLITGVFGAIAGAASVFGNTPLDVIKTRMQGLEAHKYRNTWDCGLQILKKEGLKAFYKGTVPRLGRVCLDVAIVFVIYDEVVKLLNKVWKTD
UniProt Q6IA17: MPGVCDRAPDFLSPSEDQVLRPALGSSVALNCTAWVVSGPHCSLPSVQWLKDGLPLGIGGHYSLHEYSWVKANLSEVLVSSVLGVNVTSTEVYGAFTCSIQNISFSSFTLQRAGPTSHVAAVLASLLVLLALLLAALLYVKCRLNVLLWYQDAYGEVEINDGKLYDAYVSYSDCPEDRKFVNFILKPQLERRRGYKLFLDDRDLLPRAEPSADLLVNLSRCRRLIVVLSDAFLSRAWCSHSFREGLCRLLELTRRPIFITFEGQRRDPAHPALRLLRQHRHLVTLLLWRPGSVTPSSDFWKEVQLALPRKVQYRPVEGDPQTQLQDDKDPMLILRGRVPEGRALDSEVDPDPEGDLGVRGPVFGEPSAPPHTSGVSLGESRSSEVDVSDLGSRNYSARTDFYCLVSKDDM
UniProt Q15459: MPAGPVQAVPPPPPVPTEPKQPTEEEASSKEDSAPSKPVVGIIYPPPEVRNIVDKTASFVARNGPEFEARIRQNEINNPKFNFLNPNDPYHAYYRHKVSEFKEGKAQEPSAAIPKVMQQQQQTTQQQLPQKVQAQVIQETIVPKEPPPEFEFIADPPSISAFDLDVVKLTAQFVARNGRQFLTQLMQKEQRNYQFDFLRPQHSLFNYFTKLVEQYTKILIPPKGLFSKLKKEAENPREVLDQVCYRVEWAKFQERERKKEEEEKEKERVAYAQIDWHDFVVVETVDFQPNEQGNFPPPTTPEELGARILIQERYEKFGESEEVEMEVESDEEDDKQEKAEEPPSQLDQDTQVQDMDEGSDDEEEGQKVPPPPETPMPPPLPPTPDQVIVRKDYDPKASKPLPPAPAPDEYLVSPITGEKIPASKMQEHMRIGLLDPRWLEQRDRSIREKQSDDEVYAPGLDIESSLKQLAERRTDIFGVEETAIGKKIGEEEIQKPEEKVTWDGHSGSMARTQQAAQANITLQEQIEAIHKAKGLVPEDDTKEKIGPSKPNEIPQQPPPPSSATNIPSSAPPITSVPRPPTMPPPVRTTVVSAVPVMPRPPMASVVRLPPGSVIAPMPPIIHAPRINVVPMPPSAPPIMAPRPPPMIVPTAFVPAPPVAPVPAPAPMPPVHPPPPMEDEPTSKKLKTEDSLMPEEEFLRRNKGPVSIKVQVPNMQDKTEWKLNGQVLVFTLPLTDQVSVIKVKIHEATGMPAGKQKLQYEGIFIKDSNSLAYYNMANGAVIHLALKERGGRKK
UniProt Q16181: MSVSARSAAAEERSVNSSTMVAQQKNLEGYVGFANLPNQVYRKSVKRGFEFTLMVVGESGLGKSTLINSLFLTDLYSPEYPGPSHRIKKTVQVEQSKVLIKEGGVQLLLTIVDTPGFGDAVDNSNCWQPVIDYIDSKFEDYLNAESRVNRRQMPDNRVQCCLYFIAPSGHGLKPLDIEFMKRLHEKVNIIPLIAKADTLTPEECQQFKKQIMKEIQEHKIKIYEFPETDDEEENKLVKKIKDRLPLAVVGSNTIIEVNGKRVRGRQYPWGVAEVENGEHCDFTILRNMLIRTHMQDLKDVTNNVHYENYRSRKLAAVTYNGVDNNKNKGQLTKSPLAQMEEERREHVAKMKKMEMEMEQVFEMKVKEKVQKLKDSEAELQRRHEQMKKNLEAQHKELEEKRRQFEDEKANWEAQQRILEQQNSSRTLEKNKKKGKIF
UniProt Q96ES7: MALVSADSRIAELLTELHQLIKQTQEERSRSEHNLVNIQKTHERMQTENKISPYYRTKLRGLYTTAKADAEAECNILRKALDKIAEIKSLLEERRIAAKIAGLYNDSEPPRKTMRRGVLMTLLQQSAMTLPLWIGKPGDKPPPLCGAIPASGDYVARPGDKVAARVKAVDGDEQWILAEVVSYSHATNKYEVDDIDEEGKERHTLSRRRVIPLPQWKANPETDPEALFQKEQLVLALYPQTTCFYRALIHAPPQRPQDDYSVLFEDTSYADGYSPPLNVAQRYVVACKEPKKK

Some of the results follow.
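Further: competitive profiling in live THP-1 cells: cysteine peptides tagged with an iodoacetamide desthiobiotin (IA-DTB) probe, intensity after compound treatment relative to DMSO-treated cells.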

As for “SIKE1_Q9BRV8_146_ICEMGEVMR (UniProt Q9BRV8)”, the “probe-labelled cysteine peptide fold change” value runs as follows: (10 µM) 0.0507; (50 µM) -0.0257.
Regarding “SF1_Q15637_292_CGGAGHIASDCK (UniProt Q15637)”, the “probe-labelled cysteine peptide fold change” value was 0.0464 (10 µM) and 0.00531 (50 µM).
As to “SF3A3_Q12874_103_KHPNEICVPMSVEFEELLK (UniProt Q12874)”, the “probe-labelled cysteine peptide fold change” value was -0.0763 (10 µM) and -0.0663 (50 µM).
Regarding “SH3GLB2_Q9NR46_252_CLHEFVK (UniProt Q9NR46)”, the “probe-labelled cysteine peptide fold change” value (10 µM) was -0.039 and the “probe-labelled cysteine peptide fold change” value (50 µM) was -0.347.
Turning to “SKAP2_O75563_185+186_DCCFEISAPDKR (UniProt O75563)”, the “probe-labelled cysteine peptide fold change” value (10 µM) amounted to 0.206 and the “probe-labelled cysteine peptide fold change” value (50 µM) was -0.405.
On to “SETD2_Q9BYW2_2532_NPEDLECNENVK (UniProt Q9BYW2)”, for which the “probe-labelled cysteine peptide fold change” value (10 µM) was 0.506 and the “probe-labelled cysteine peptide fold change” value (50 µM) amounted to 0.0337.
As for “SLC25A22_Q9H936_271_GVNEDTYSGILDCAR (UniProt Q9H936)”, the “probe-labelled cysteine peptide fold change” value runs as follows: (10 µM) 0.0192; (50 µM) 0.0793.
As to “SHC1_P29353-6_416_QMPPPPPCPAGR (UniProt P29353)”, the “probe-labelled cysteine peptide fold change” value is -0.26 (10 µM) and -0.557 (50 µM).
Consider “SLC25A5_P05141_257_GTDIMYTGTLDCWRK (UniProt P05141)”, for which the “probe-labelled cysteine peptide fold change” value is, setting by setting: (10 µM) -0.0476; (50 µM) -0.127.
On to “SETD3_Q86TU7_36_CSSPAPGPGK (UniProt Q86TU7)”, for which the “probe-labelled cysteine peptide fold change” value (10 µM) is -0.0291 and the “probe-labelled cysteine peptide fold change” value (50 µM) was -0.0265.
The matching figures for “SFMBT1_Q9UHJ3_659_IGRPPGGHSNLACALKK (UniProt Q9UHJ3)”: -0.175 and -0.67.
Turning to “SHCBP1_Q8NEM2_500+510_GAGIEIYPGSQCTLSDNGIHHCK (UniProt Q8NEM2)”, the “probe-labelled cysteine peptide fold change” value reads like this: (10 µM) -0.0561; (50 µM) -0.139.
Turning to “SLC12A9_Q9BXP2_911_DLGPTLLVHGVTPVTCTDL (UniProt Q9BXP2)”, the “probe-labelled cysteine peptide fold change” value is, setting by setting: (10 µM) 0.0705; (50 µM) -0.0868.
In the case of “SKIV2L_Q15477_719_GLDPTGTVILLCK (UniProt Q15477)”, the “probe-labelled cysteine peptide fold change” value runs as follows: (10 µM) 0.0937; (50 µM) 0.25.
Consider “SIRPA_P78324_170_ATPQHTVSFTCESHGFSPR (UniProt P78324)”, for which the “probe-labelled cysteine peptide fold change” value reads like this: (10 µM) 0.131; (50 µM) 0.388.
The matching figures for “SHKBP1_Q8TBC3_447_HLISVCADNNHVR (UniProt Q8TBC3)”: -0.21 and 0.106.
Turning to “SLC25A16_P16260_246_THVNLLCGGVAGAIAQTISYPFDVTR (UniProt P16260)”, the “probe-labelled cysteine peptide fold change” value is, setting by setting: (10 µM) 0.291; (50 µM) 0.596.
In the case of “SGSM3_Q96HU1_517_DEHCWVGELNGLR (UniProt Q96HU1)”, the “probe-labelled cysteine peptide fold change” value runs as follows: (10 µM) 0.186; (50 µM) 0.255.
Turning to “SLC25A1_P53007_141_GLLCGLGAGVAEAVVVVCPMETIK (UniProt P53007)”, the “probe-labelled cysteine peptide fold change” value amounted to 0.166 (10 µM) and 0.0975 (50 µM).
Take “SHPK_Q9UHJ6_187_SYDAAGTIHDYVVAMLCGLPR (UniProt Q9UHJ6)”: the “probe-labelled cysteine peptide fold change” value turned out to be 0.291 (10 µM) and 0.329 (50 µM).
The matching figures for “SF3A3_Q12874_408+411_LHGLNINYNCEICGNYTYR (UniProt Q12874)”: 0.113 and -0.0346.
The matching figures for “SERPINB6_P35237_100_SCDFLSSFR (UniProt P35237)”: 0.0275 and -0.0148.
As for “SIKE1_Q9BRV8_164_AVQVDDDQFCK (UniProt Q9BRV8)”, the “probe-labelled cysteine peptide fold change” value is, setting by setting: (10 µM) 0.0643; (50 µM) 0.212.
“SH2B2_O14492_333_VASCSCELLTDAVDLPRPPETTAVGAVVTAPHSR (UniProt O14492)”: the “probe-labelled cysteine peptide fold change” value runs as follows: (10 µM) 0.129; (50 µM) -0.133.
Regarding “SLC16A3_O15427_161_RPMANGLAAAGSPVFLCALSPLGQLLQDR (UniProt O15427)”, the “probe-labelled cysteine peptide fold change” value runs as follows: (10 µM) -0.111; (50 µM) -0.0849.
On to “SIGIRR_Q6IA17_174_LYDAYVSYSDCPEDR (UniProt Q6IA17)”, for which the “probe-labelled cysteine peptide fold change” value (10 µM) is -0.234 and the “probe-labelled cysteine peptide fold change” value (50 µM) was -0.396.
The matching figures for “SHKBP1_Q8TBC3_550_SVDGSPTTAFTVLECEGSR (UniProt Q8TBC3)”: -0.0633 and -0.853.
Regarding “SF3A1_Q15459_244_EVLDQVCYR (UniProt Q15459)”, the “probe-labelled cysteine peptide fold change” value by setting is: (10 µM) -0.258; (50 µM) 0.023.
On to “SEPT9_Q9UHD8_411_VHCCLYFIPATGHSLRPLDIEFMK (UniProt Q9UHD8)”, for which the “probe-labelled cysteine peptide fold change” value is -0.0585 (10 µM) and -0.0235 (50 µM).
Consider “SLC25A1_P53007_262_NTWDCGLQILKK (UniProt P53007)”, for which the “probe-labelled cysteine peptide fold change” value (10 µM) is -0.0324 and the “probe-labelled cysteine peptide fold change” value (50 µM) was -0.567.
Regarding “SEPT6_Q14141_42_SVSQGFCFNILCVGETGLGK (UniProt Q14141)”, the “probe-labelled cysteine peptide fold change” value was 0.0157 (10 µM) and -0.0234 (50 µM).
The matching figures for “SEPT7_Q16181_160_VQCCLYFIAPSGHGLKPLDIEFMK (UniProt Q16181)”: 0.0275 and -0.536.
The matching figures for “SLC25A22_Q9H936_116_EMLAGCGAGTCQVIVTTPMEMLK (UniProt Q9H936)”: 0.343 and -0.0416.
For the target “SIN3A_Q96ST3_551_ATEGIAMEIDYASCK (UniProt Q96ST3)”, the “probe-labelled cysteine peptide fold change” value is -0.0731 (10 µM) and -0.00474 (50 µM).
The matching figures for “SETX_Q7Z333_2630_CDDPEEELCHR (UniProt Q7Z333)”: -0.179 and -0.174.
As to “SGF29_Q96ES7_74_ADAEAECNILR (UniProt Q96ES7)”, the “probe-labelled cysteine peptide fold change” value is -0.0208 (10 µM) and 0.12 (50 µM).

(Values after the supplement of paper PMC12067093, “Discovery and optimisation of a covalent ligand for TRIM25 and its application to targeted protein ubiquitination” (Chemical Science, 2025).)
